Counter-ions that a name gives are not always drawn.
Test: Aerodynamic particle size distribution on Next Generation Impactor (NGI)
Format: physicochemical
Details: sample 14 sprayed by soft mist inhaler, NGI at 30 L/min
Description: Sample 14 was sprayed by a soft mist inhaler. Aerodynamic particle size distribution of droplets of sample 14 was measured on a Next Generation Impactor (NGI). Next Generation Impactor operated at a flow rate of 30 L/min was used for determination of particle size distribution. For each of the impactor experiments, the impactor collection stages were coated with a silicone oil. The particle size distribution is expressed in terms of mass median aerodynamic diameter (MMAD) and Geometric Standard Deviation (GSD).

SMILES: COc1ccc(CC(C)NCC(O)c2ccc(O)c(NC=O)c2)cc1 (stereo not shown) [Formoterol fumarate, N-[2-hydroxy-5-(1-hydroxy-2-((2-(4-methoxyphenyl)-1-methylethy-1)amino)-ethyl)phenyl]formamide]
- MMAD (mass median aerodynamic diameter): 4.50 μm

— US20200405700A1 (priority 2019, published 2020)
